Experimental data from publication PMC7870846, “Incorporation of sensing modalities into de novo designed fluorescence-activating proteins” (Nature Communications, 2021).

System: m14_aBCLXL
Experiment: Titration of BCLXL_m58 into m14_aBCLXL (bimolecular association model)
Assay type: binding
Conditions: of 7.64 µM total

B1: m14_aBCLXL: aBCLXL fused to split mFAP fragment m14 (protein)
chain: SRAAQLLPGTWQATFTNEDGQTSQGQWHFQPRSPYTMDIVAQGTISDGRPIVGYGKATVKTPGSSGGSGGSGADPKKVLDKAKDRAENVVRKLKKELEELYKEARKLDLTQEMRDRIRRTAIAARFQAHGDIFHAIKHAKEEARKLKKAGLVNSQQLDELKRRLRELDEEAEQRAEKLGKEFRLKLEYG
folded concentration: 4.06 µM
